Measured values reported in paper PMC12564220.

Amino acid sequences for entries named in this document (tags omitted). Residues count along the entry.
UniProt P27824, residues 21-592: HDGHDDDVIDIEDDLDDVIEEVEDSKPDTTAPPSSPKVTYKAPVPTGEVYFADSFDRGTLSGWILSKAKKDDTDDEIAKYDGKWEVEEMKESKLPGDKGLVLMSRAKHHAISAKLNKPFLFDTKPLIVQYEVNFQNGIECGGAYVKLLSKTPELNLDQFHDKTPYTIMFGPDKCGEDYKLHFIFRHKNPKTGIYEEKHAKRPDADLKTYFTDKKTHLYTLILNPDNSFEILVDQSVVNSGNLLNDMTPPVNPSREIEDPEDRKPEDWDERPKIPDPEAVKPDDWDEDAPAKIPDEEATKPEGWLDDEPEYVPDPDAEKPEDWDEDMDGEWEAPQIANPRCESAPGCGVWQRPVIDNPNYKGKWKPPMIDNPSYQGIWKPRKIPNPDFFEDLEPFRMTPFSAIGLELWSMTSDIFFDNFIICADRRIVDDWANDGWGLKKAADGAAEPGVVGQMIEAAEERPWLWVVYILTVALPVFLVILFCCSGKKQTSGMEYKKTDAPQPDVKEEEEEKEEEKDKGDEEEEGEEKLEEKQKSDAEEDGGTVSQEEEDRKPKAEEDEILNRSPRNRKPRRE
UniProt Q13148: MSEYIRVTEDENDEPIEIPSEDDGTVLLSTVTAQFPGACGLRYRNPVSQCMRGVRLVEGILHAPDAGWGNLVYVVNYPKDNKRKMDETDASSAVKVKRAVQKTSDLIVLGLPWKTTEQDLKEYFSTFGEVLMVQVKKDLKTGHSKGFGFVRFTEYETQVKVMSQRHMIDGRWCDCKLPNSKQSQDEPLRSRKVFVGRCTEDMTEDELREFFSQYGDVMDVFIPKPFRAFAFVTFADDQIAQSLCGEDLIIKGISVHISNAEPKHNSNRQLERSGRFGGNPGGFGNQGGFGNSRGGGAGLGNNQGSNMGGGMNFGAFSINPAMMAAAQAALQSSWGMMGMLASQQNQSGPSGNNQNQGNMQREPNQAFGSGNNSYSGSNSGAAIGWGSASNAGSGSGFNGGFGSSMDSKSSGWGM
UniProt Q9UHD9: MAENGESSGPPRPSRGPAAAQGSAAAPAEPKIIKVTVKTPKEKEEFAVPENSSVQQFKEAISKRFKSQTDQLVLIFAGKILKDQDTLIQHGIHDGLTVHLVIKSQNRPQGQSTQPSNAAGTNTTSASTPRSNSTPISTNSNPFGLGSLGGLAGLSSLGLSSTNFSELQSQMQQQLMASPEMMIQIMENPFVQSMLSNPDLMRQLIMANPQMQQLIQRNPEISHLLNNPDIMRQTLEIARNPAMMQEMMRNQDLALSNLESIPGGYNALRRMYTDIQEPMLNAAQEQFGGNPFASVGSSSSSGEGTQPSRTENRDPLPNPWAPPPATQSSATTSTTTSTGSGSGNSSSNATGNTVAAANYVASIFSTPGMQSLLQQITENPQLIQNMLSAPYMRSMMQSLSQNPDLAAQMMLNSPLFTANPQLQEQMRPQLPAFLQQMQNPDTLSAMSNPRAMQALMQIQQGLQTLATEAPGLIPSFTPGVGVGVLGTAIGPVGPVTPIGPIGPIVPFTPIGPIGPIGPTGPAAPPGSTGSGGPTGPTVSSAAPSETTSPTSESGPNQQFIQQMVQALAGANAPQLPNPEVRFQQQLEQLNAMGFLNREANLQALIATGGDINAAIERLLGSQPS
UniProt Q9NYU2, residues 43-1555: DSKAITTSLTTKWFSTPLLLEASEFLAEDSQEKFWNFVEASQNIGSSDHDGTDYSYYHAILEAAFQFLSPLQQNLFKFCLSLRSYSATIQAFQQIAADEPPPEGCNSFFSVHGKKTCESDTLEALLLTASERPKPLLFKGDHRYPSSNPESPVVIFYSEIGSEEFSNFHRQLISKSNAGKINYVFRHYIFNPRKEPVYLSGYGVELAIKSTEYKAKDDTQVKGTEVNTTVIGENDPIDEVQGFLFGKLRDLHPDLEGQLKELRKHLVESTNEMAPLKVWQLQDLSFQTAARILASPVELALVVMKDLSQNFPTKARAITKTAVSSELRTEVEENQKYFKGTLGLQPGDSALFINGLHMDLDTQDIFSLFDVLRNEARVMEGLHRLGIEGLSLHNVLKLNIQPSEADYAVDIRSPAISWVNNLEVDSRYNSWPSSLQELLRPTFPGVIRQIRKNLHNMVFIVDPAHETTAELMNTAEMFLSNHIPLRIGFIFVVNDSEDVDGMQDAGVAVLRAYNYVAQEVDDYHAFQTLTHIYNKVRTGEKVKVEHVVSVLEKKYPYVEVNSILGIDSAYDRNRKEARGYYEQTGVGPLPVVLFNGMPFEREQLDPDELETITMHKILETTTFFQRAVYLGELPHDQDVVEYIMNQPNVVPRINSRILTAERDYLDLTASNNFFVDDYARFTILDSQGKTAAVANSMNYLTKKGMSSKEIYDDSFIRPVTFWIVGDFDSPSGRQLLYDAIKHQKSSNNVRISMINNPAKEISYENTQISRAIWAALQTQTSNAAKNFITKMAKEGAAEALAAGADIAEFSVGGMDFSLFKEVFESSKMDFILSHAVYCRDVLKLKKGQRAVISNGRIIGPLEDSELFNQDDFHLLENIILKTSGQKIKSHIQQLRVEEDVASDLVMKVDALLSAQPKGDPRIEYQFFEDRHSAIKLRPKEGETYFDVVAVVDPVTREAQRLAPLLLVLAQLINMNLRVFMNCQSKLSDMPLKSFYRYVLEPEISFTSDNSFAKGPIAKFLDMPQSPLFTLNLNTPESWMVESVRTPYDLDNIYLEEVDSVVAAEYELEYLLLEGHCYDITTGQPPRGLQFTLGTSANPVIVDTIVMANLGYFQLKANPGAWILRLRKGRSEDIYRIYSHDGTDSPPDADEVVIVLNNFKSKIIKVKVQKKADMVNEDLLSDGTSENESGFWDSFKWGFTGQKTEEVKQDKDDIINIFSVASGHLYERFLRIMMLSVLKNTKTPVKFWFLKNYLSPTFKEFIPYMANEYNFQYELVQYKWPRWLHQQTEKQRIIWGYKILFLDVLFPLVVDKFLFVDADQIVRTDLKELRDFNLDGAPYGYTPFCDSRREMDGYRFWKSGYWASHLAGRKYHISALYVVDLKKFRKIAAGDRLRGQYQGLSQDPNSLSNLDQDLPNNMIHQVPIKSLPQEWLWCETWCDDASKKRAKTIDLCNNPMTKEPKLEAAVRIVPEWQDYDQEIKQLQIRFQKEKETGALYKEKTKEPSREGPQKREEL

T1: H2aG78R uncleavable mutant fused through its C-terminus to a 38-amino acid streptavidin binding peptide (human) (UniProt P07307)
T1 sequence: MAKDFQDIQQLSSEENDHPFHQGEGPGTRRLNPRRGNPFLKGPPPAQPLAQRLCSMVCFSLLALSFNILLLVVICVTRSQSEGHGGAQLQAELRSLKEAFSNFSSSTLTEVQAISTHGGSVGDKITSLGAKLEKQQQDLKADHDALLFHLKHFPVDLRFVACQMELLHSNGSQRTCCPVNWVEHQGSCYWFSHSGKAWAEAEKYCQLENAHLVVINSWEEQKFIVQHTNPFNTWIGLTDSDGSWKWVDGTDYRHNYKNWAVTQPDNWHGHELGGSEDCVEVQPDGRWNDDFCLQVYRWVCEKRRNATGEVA


Target: T1, H2aG78R uncleavable mutant fused through its C-terminus to a 38-amino acid streptavidin binding peptide (human)
Assay: affinity purification with mass spectrometry; SILAC; SBP6 cells (H2aSBP) and HEK293 control cells, with or without 50 μM MG-132 + 50 μM ALLN for 4 h, 2 mM puromycin for the last 15 min; lysis in 1% digitonin in PBS; lysates mixed 1:1; streptavidin beads overnight; elution with 250 μM biotin; SDS-PAGE, trypsin, nano LC-MS/MS; hits with >2-fold ratio labeled/unlabeled

| binding | Molecule |
| --- | --- |
| binds | calnexin (from UniProt P27824 21-592) |
| binds | ubiquitin (human (endogenous in HEK293)) |
| binds | SSRA (protein, UniProt P43307 19-286) VLFRGGPRGLLAVAQDLTEDEETVEDSIIEDEDDEAEVEEDEPTDLVEDKEEEDVSGEPEASPSADTTILFVKGEDFPANNIVKFLVGFTNKGTEDFIVESLDASFRYPQDYQFYIQNFTALPLNTVVPPQRQATFEYSFIPAEPMGGRPFGLVINLNYKDLNGNVFQDAVFNQTVTVIEREDGLDGETIFMYMFLAGLGLLVIVGLHQLLESRKRKRPIQKVEMGTSSQNDVDMSWIPQETLNQINKASPRRLPRKRAQKRSVGSDE |
| binds | MAGT1 (protein, UniProt Q9H0U3 30-335) QRKKEMVLSEKVSQLMEWTNKRPVIRMNGDKFRRLVKAPPRNYSVIVMFTALQLHRQCVVCKQADEEFQILANSWRYSSAFTNRIFFAMVDFDEGSDVFQMLNMNSAPTFINFPAKGKPKRGDTYELQVRGFSAEQIARWIADRTDVNIRVIRPPNYAGPLMLGLLLAVIGGLVYLRRSNMEFLFNKTGWAFAALCFVLAMTSGQMWNHIRGPPYAHKNPHTGHVNYIHGSSQAQFVAETHIVLLFNGGVTLGMVLLCEAATSDMDIGKRKIMCVAGIGLVVLFFSWMLSIFRSKYHGYPYSFLMS |

Continued, molecule first:

| Molecule | binding |
| --- | --- |
| TAR DNA-binding protein 43 (from UniProt Q13148 1-414) | binds |
| UBQL2 (from UniProt Q9UHD9 1-624) | binds |
| UDP-glucose glycoprotein glucosyltransferase 1 (from UniProt Q9NYU2 43-1555) (enzyme) | binds |
| Selenoprotein 15 (protein, UniProt O60613 32-165) FGAEFSSEACRELGFSSNLLCSSCDLLGQFNLLQLDPDCRGCCQEEAQFETKKLYAGAILEVCGUKLGRFPQVQAFVRSDKPKLFRGLQIKYVRGSDPVLKLLDDNGNIAEELSILKWNTDSVEEFLSEKLERI | binds |
| OSTC (protein, UniProt Q9NRP0 1-149) METLYRVPFLVLECPNLKLKKPPWLHMPSAMTVYALVVVSYFLITGGIIYDVIVEPPSVGSMTDEHGHQRPVAFLAYRVNGQYIMEGLASSFLFTMGGLGFIILDRSNAPNIPKLNRFLLLFIGFVCVLLSFFMARVFMRMKLPGYLMG | binds |
| STT3 oligosaccharyltransferase complex catalytic subunit A (enzyme, UniProt P46977 1-705) MTKFGFLRLSYEKQDTLLKLLILSMAAVLSFSTRLFAVLRFESVIHEFDPYFNYRTTRFLAEEGFYKFHNWFDDRAWYPLGRIIGGTIYPGLMITSAAIYHVLHFFHITIDIRNVCVFLAPLFSSFTTIVTYHLTKELKDAGAGLLAAAMIAVVPGYISRSVAGSYDNEGIAIFCMLLTYYMWIKAVKTGSICWAAKCALAYFYMVSSWGGYVFLINLIPLHVLVLMLTGRFSHRIYVAYCTVYCLGTILSMQISFVGFQPVLSSEHMAAFGVFGLCQIHAFVDYLRSKLNPQQFEVLFRSVISLVGFVLLTVGALLMLTGKISPWTGRFYSLLDPSYAKNNIPIIASVSEHQPTTWSSYYFDLQLLVFMFPVGLYYCFSNLSDARIFIIMYGVTSMYFSAVMVRLMLVLAPVMCILSGIGVSQVLSTYMKNLDISRPDKKSKKQQDSTYPIKNEVASGMILVMAFFLITYTFHSTWVTSEAYSSPSIVLSARGGDGSRIIFDDFREAYYWLRHNTPEDAKVMSWWDYGYQITAMANRTILVDNNTWNNTHISRVGQAMASTEEKAYEIMRELDVSYVLVIFGGLTGYSSDDINKFLWMVRIGGSTDTGKHIKENDYYTPTGEFRVDREGSPVLLNCLMYKMCYYRFGQVYTEAKRPPGFDRVRNAEIGNKDFELDVLEEAYTTEHWLVRIYKVKDLDNRGLSRT | binds |

These are yes or no findings as the source states them, for the method shown. In cells and extracts the contact can be indirect. These calls come from enrichment with a bait or labelling near it, and not all partners need be listed. Tags and fused reporters may be left off the sequences shown.
